From ChEMBL document CHEMBL3988442, “University of Dundee, Small-Polar-MMV Screening Library” (2021).

Amino acid sequences for entries named in this document (tags omitted). Residues count along the entry.
UniProt Q4DA54, 1-478: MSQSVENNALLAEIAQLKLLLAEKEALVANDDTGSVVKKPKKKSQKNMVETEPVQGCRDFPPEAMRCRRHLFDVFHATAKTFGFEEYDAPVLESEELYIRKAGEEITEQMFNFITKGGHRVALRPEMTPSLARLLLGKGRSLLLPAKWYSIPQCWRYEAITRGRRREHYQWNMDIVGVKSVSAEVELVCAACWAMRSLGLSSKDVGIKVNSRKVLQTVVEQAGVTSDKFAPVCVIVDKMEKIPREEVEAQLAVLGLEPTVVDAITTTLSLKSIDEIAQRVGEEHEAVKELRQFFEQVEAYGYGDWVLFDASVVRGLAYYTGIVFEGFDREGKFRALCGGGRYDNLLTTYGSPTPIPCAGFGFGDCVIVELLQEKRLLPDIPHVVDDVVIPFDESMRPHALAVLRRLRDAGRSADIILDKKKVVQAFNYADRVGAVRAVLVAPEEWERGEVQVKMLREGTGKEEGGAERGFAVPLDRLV
UniProt A4I591, 1-473: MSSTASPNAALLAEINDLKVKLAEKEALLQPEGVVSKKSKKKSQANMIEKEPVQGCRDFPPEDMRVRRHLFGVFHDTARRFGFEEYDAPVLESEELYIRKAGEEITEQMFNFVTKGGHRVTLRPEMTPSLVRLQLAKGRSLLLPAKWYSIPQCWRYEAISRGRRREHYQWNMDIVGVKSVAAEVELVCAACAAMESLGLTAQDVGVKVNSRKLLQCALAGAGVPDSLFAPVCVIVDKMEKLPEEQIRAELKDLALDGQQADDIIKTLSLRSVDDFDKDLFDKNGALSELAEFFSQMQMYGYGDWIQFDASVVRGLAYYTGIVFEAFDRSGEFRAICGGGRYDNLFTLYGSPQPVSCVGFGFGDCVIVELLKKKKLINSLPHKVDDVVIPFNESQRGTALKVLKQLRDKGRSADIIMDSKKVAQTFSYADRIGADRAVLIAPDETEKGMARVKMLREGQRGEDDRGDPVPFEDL
UniProt Q8IDJ8, 1-583: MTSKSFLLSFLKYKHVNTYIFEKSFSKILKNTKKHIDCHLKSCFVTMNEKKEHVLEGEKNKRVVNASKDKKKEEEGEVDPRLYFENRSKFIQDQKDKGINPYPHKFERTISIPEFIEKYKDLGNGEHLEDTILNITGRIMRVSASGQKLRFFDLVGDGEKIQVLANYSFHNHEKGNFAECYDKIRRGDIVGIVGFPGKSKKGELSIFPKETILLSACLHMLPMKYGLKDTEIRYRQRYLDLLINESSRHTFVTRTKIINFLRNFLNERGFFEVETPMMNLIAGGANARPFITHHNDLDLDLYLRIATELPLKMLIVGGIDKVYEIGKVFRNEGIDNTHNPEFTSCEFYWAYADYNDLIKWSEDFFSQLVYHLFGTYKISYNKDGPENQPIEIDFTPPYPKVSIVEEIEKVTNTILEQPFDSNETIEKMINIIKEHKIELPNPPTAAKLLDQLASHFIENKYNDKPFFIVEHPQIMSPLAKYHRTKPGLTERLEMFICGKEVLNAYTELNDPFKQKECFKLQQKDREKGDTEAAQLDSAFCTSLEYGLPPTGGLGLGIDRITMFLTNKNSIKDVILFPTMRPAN

Each number is a percent effect as filed.
The record does not define 0% and 100%; most values in the screen are far below 50% and negative numbers occur (in some assays of this library far below -100).
This is an unselected part of the compounds tested.

TcHisRS: 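Histidine-tRNA ligase, Trypanosoma cruzi CL Brener (UniProt Q4DA54). Enzyme assay of histidyl-tRNA synthetase; the read-out is not stated. Tested at 30 µM. Higher reads as stronger inhibition (inferred: compounds with an IC50 in retests scored well above the rest). About 69,000 compounds were tested under these conditions; 0.045% (about 31) showed 50% or more at least once.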
LiHisRS: 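Histidine-tRNA ligase, Leishmania infantum (UniProt A4I591). Enzyme assay of histidyl-tRNA synthetase; the read-out is not stated. Tested at 30 µM. Higher reads as stronger inhibition (inferred: compounds with an IC50 in retests scored well above the rest). The assay is labelled LdHisRS but filed under L. infantum. About 69,000 compounds were tested under these conditions; 0.6% (about 410) showed 50% or more at least once.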
PfKRS1: 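Lysine-tRNA ligase, Plasmodium falciparum 3D7 (UniProt Q8IDJ8). Enzyme assay of the cytosolic lysyl-tRNA synthetase in 384-well plates, read by luminescence. Concentration: 30 µM. Higher reads as stronger inhibition, judged from the few compounds that gave an IC50. About 69,000 compounds were tested under these conditions; 0.071% (about 49) showed 50% or more at least once.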

- Cc1cc(CC(=O)NC(C)c2ccc(OCC3CC3)c(F)c2)n[nH]1 (stereo unspecified) | TcHisRS: -0.8333%; LiHisRS: 1.887%; PfKRS1: 1.808%
- Cc1cnn(CC2CCCN2C(=O)c2cc3ccccc3c(=O)[nH]2)c1 (stereo unspecified) | TcHisRS: 3.207%; LiHisRS: 16.81%; PfKRS1: 1.341%
- CN1CCOCC12CCN(c1ccc(C#N)cc1)CC2 | TcHisRS: 7.595%; LiHisRS: 15.52%; PfKRS1: 3.281%
- Cc1cnn(CC(=O)N(CC2CN(C)CCO2)c2nccs2)c1 (stereo unspecified) | TcHisRS: -0.9901%; LiHisRS: 1.087%; PfKRS1: 4.711%
- CC(C)OCCC(=O)Nc1cc(C(=O)N(C)C(C)C)ccc1Cl | TcHisRS: -6.667%; LiHisRS: 6.349%; PfKRS1: 0.3838%
- Cc1cnc(C(=O)N2Cc3ncn(C)c3C(COCC(C)C)C2)cn1 (stereo unspecified) | TcHisRS: 4.42%; LiHisRS: 4.505%; PfKRS1: 1.533%
- CN(Cc1coc(-c2ccccc2)n1)C1CCCN(c2cccnn2)C1 (stereo unspecified) | TcHisRS: 16.57%; LiHisRS: 13.16%; PfKRS1: 0.6564%
- CC(C)CC1(C(=O)NCCc2nncn2C2CC2)CCC1 | TcHisRS: 4.902%; LiHisRS: 10.92%; PfKRS1: 6.683%
- O=C(NCC1CCS(=O)(=O)C1)c1sccc1-c1ccc(F)cc1 (stereo unspecified) | TcHisRS: -4.237%; LiHisRS: 16.98%; PfKRS1: 2.568%
- COc1cccc2cc(CNC(=O)N3CCS(=O)(=O)CC3)oc12 | TcHisRS: 3.429%; LiHisRS: 5.085%; PfKRS1: -0.4999%
- CCCN1CCCN(C(=O)Nc2ccc3c(c2)OCO3)CC1 | TcHisRS: 2.564%; LiHisRS: -1.587%; PfKRS1: 0.3838%
- O=C(Cn1cnnn1)NC(c1ccccc1)c1ccc2c(c1)CCCO2 (stereo unspecified) | TcHisRS: -17.71%; LiHisRS: 25%; PfKRS1: -2.51%
- Cc1ccc(CNCc2nccn2C)c(OC(C)(C)C)c1 | TcHisRS: 0.8696%; LiHisRS: 6.667%; PfKRS1: -3.227%
- Nc1nc2c(c(N3CCN(C(=O)c4cccs4)CC3)n1)CCCC2 | TcHisRS: 9.392%; LiHisRS: 7.042%; PfKRS1: -0.5326%
- CC(C)SCC(=O)N1Cc2cnc(-c3ccccc3)nc2C1 | TcHisRS: 5.82%; LiHisRS: 20.59%; PfKRS1: 14.39%
- CCNC(=O)c1ccnc(NCC2COc3cc(OC)ccc3C2)c1 (stereo unspecified) | TcHisRS: 7.438%; LiHisRS: 11.43%; PfKRS1: 1.78%
- CC(C)N1CCc2onc(Cn3cccn3)c2C1 | TcHisRS: 4.598%; LiHisRS: 2.632%; PfKRS1: -0.6845%
- CCN(CC1CCOC1)C(=O)NCc1nnc2n1CCC2 (stereo unspecified) | TcHisRS: 9.091%; LiHisRS: 11.7%; PfKRS1: 3.027%
- Cc1c[nH]c(CN(C)C(=O)CCn2cnc3ccccc32)n1 | TcHisRS: -2.632%; LiHisRS: 9.167%; PfKRS1: -1.466%
- Cc1ccc(C(=O)N2C[C@H](NS(C)(=O)=O)[C@@H](C(C)C)C2)cc1F | TcHisRS: 6.329%; LiHisRS: 4.167%; PfKRS1: -0.5226%
- O=C(CN1CCc2cncnc2C1)NCCOc1ccccc1 | TcHisRS: 5.303%; LiHisRS: 50%; PfKRS1: 3.71%
- CN(C)S(=O)(=O)N1CCC(c2n[nH]cc2-c2ccnc(N)c2)C1 (stereo unspecified) | TcHisRS: 2.273%; LiHisRS: 7.246%; PfKRS1: 0.498%
- Cc1nn(C)c(C)c1C1CCCN1C(=O)CCCc1ccccn1 (stereo unspecified) | TcHisRS: 1.143%; LiHisRS: 11.54%; PfKRS1: -1.342%
- Cc1cccnc1NC(=O)c1ccc(F)c(S(=O)(=O)N2CCC2)c1 | TcHisRS: 4.972%; LiHisRS: 11.4%; PfKRS1: 1.454%
- Cn1cc([C@@H]2CN(S(C)(=O)=O)C[C@H]2N)c2ccncc21 | TcHisRS: 7.576%; LiHisRS: 11.59%; PfKRS1: -1.096%
- CC(C)OC(=O)N1CCC(Nc2ncc(Br)cn2)CC1 | TcHisRS: 11.35%; LiHisRS: 2.74%; PfKRS1: 0.3602%
- CN(C)S(=O)(=O)N1C[C@H]2CCC[C@@]2(COc2cccnc2)C1 | TcHisRS: 0%; LiHisRS: 15.79%; PfKRS1: 4.54%
- CCc1cc(N2C[C@H](C3CC3)[C@@H](N)C2)nc(N2CCOCC2)n1 | TcHisRS: 2.41%; LiHisRS: 2%; PfKRS1: -0.7757%
- CC(=O)N[C@@H](CC(C)C)C(=O)N1CCC(n2cc(CO)nn2)CC1 | TcHisRS: 9.239%; LiHisRS: 21.33%; PfKRS1: 3.857%
- N#Cc1ccc(CS(=O)(=O)NC(=O)c2ccc(C#N)cc2)cc1 | TcHisRS: 1.961%; LiHisRS: 17.65%; PfKRS1: 3.632%
- CN(C)S(=O)(=O)c1ccc(CNC(=O)C2CC(=O)N(C(C)(C)C)C2)cc1 (stereo unspecified) | TcHisRS: 4.215%; LiHisRS: 10.07%; PfKRS1: -0.541%
- CC1CN(c2ccccc2Cl)C(=O)CN1C(=O)c1c[nH]c(=O)c(Cl)c1 (stereo unspecified) | TcHisRS: 1.786%; LiHisRS: 17.7%; PfKRS1: 5.241%
- O=C1NCCN1C1CCN(Cc2nc(-c3ccoc3)no2)CC1 | TcHisRS: 0.7634%; LiHisRS: 10.96%; PfKRS1: 4%
- O=C(Nc1ccccn1)c1cncc(C2CCNCC2)n1 | TcHisRS: 3.077%; LiHisRS: 12.68%; PfKRS1: -0.4068%

2 of the entries, repeated:

With Cc1cc(CC(=O)NC(C)c2ccc(OCC3CC3)c(F)c2)n[nH]1 (stereo unspecified) the screen gave TcHisRS: -0.8333%; LiHisRS: 1.887%; PfKRS1: 1.808%.
With N#Cc1ccc(CS(=O)(=O)NC(=O)c2ccc(C#N)cc2)cc1 the screen gave TcHisRS: 1.961%; LiHisRS: 17.65%; PfKRS1: 3.632%.